From article PMC9997659, “TLN1 contains a cancer-associated cassette exon that alters talin-1 mechanosensitivity” (The Journal of Cell Biology, 2023)
These are yes or no findings as the source states them, for the method shown.

By UniProt entry, the sequences of proteins in these tests, tags left out. Residues count along the entry.
UniProt Q9Y490, residues 482-786: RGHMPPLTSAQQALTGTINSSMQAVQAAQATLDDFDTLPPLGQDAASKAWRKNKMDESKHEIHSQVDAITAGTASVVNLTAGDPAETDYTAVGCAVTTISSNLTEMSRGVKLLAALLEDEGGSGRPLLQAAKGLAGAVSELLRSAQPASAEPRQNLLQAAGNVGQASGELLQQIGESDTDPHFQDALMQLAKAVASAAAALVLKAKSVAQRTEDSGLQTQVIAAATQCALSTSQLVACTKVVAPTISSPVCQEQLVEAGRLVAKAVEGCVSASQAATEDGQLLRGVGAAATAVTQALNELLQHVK

Biological target: T1, Human talin-1 R1R2-WT (residues 482-786) (human, UniProt Q9Y490 482-786)
T1 construct: talin-1 (TLN1), human, rod domains R1 and R2, residues 482-786 of the 2,541 amino acid protein; codon optimized synthetic gene in pET151; also called wild-type R1R2; talin R1R2-WT; source: E. coli BL21(DE3)*, purified (Nickel-NTA, TEV cleavage, HiTrap Q)
Assay: SEC; Superdex-200 gel filtration of talin R1R2-WT or R1R2-17b alone; molecular weight calculated from the elution peak; both purified

binding: no binding
Substance: Human talin-1 R1R2-WT (residues 482-786) (from UniProt Q9Y490 482-786) (domain or fragment)
